Data reported in the supplement of paper PMC10849652.
This is one part of the list.

The chains behind the UniProt entries cited, without tags or fusion partners. Where a name states a change or a piece, a line headed by the entry shows the natural chain unless it says otherwise.
UniProt P16989, whole entry, looked up: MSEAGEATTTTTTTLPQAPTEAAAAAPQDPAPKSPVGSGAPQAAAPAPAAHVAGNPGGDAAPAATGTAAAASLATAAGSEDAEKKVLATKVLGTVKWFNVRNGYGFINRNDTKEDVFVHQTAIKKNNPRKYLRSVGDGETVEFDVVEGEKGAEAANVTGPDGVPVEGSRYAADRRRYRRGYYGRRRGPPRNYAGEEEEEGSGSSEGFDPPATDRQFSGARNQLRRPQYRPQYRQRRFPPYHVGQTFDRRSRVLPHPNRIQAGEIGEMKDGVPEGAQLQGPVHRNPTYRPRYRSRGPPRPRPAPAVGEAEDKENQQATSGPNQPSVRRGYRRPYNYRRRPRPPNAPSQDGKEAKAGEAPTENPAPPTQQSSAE
UniProt Q9ULJ3: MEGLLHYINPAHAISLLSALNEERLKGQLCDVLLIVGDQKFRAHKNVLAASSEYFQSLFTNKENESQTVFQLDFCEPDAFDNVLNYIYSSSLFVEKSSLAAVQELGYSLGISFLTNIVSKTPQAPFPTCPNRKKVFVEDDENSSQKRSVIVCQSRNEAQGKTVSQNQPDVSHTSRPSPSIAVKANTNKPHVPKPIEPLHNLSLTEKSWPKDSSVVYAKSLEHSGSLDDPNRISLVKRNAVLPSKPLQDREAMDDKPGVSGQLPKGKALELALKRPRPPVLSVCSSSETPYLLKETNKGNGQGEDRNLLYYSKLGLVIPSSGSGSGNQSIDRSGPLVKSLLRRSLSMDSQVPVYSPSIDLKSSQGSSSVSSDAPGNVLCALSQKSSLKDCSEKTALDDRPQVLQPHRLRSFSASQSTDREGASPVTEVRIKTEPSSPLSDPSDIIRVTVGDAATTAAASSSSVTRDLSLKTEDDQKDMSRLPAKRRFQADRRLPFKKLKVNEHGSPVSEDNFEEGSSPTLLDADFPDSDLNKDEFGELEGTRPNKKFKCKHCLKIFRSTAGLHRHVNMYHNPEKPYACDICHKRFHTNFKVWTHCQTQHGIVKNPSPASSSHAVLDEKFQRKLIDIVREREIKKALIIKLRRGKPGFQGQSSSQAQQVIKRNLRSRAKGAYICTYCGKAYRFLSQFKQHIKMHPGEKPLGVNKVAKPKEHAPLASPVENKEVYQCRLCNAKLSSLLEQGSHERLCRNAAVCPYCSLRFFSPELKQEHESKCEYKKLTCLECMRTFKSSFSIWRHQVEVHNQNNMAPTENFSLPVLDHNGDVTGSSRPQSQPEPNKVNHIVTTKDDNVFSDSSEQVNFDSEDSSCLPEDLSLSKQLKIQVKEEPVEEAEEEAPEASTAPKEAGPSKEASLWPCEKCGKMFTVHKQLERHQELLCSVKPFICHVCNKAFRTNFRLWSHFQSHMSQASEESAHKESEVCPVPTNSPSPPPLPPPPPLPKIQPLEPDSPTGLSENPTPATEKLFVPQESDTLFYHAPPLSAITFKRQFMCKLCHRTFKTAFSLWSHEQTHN
UniProt P63104: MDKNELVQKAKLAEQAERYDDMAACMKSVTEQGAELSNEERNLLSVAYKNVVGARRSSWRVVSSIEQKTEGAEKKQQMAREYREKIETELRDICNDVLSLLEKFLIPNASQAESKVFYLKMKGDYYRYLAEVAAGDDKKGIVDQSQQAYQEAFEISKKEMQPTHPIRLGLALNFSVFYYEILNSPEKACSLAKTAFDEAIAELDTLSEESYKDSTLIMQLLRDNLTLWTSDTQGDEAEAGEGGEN
UniProt P12956: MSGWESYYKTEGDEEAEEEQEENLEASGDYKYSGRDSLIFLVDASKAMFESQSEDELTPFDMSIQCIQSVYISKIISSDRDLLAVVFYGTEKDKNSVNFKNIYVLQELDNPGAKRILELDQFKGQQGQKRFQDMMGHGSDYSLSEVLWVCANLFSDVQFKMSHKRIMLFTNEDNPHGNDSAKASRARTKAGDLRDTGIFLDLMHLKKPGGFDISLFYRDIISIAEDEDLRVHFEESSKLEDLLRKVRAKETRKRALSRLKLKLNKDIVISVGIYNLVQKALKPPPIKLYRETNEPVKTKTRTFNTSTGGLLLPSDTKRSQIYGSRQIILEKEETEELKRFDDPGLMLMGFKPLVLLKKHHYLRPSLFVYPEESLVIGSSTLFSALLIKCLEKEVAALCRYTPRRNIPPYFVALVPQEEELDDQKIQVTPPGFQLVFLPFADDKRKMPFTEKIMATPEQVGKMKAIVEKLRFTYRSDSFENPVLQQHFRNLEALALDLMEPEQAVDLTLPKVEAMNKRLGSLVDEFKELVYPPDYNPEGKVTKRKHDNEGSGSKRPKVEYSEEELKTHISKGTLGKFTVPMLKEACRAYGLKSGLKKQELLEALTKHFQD
UniProt Q5SVZ6: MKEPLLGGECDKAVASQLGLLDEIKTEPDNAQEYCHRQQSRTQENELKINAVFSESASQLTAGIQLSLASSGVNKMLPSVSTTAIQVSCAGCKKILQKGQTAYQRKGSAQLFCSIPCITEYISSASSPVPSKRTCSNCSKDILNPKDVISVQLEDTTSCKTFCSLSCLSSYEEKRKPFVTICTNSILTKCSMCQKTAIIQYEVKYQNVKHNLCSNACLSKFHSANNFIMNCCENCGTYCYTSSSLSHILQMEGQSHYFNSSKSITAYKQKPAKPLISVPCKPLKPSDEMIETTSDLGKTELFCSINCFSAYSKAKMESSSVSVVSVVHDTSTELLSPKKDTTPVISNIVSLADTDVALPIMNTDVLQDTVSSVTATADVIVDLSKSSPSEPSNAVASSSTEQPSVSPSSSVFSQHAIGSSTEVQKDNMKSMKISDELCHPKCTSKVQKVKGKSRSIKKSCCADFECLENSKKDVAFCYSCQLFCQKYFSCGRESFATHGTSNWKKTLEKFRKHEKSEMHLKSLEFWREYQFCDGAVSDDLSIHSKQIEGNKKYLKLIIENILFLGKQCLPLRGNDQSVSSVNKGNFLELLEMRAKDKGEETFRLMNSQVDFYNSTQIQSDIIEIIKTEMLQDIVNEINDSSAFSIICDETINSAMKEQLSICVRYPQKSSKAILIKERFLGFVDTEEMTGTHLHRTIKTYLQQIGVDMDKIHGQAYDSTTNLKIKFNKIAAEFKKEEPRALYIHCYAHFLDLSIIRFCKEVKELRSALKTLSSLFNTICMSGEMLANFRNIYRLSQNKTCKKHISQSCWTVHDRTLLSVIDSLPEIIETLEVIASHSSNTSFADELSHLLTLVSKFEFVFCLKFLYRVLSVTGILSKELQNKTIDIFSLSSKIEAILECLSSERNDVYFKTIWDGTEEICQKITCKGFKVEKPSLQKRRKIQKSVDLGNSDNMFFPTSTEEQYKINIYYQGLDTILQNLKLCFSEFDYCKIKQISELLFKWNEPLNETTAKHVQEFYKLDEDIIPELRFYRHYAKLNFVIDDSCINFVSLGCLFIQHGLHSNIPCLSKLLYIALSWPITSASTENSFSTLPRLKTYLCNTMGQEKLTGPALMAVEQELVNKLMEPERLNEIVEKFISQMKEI
UniProt Q16600: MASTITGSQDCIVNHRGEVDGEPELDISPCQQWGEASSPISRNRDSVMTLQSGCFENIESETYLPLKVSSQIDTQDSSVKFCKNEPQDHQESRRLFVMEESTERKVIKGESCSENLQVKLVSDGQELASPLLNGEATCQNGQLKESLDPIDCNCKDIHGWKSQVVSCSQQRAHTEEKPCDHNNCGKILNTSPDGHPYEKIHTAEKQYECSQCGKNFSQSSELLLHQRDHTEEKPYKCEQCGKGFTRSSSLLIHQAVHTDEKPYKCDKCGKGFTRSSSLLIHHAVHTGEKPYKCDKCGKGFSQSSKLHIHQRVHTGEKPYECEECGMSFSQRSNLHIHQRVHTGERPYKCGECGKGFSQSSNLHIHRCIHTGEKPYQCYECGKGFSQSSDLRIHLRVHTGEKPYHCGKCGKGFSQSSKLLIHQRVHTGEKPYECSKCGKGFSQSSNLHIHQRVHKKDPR
UniProt Q96TA2: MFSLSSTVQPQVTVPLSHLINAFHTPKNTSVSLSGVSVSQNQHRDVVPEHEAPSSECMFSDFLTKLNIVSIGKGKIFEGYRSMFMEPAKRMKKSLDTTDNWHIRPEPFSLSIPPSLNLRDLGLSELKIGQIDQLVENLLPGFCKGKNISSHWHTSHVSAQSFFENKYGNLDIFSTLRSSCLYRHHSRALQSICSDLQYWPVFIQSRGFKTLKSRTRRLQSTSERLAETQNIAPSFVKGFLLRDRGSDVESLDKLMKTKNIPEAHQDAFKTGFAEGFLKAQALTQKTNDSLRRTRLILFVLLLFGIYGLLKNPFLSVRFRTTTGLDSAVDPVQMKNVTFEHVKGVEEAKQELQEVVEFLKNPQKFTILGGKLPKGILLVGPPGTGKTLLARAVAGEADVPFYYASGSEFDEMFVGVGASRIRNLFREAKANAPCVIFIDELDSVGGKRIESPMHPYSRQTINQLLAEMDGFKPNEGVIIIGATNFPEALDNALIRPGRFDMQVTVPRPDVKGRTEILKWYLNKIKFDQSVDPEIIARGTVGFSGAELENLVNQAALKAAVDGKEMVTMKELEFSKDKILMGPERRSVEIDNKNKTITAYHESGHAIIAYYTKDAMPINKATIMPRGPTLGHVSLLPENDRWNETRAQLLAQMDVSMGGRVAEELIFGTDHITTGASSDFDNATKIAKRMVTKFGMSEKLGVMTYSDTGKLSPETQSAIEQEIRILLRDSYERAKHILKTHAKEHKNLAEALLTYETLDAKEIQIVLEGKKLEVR
UniProt Q9H8U3: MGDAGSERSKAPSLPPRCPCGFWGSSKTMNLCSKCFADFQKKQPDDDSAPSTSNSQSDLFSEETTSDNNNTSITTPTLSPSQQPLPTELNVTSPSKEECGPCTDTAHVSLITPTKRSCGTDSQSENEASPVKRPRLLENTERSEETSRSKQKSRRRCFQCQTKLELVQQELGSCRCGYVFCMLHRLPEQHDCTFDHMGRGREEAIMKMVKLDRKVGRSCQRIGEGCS
UniProt O43542: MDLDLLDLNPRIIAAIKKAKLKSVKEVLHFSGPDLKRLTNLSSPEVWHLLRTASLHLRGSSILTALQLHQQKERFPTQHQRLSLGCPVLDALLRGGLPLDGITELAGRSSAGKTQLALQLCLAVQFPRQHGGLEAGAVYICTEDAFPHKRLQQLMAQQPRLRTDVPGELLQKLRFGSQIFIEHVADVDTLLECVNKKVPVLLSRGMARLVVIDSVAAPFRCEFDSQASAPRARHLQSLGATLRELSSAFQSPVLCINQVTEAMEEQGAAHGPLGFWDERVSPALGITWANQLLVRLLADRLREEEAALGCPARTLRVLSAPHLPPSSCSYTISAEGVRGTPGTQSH
UniProt Q6PJT7: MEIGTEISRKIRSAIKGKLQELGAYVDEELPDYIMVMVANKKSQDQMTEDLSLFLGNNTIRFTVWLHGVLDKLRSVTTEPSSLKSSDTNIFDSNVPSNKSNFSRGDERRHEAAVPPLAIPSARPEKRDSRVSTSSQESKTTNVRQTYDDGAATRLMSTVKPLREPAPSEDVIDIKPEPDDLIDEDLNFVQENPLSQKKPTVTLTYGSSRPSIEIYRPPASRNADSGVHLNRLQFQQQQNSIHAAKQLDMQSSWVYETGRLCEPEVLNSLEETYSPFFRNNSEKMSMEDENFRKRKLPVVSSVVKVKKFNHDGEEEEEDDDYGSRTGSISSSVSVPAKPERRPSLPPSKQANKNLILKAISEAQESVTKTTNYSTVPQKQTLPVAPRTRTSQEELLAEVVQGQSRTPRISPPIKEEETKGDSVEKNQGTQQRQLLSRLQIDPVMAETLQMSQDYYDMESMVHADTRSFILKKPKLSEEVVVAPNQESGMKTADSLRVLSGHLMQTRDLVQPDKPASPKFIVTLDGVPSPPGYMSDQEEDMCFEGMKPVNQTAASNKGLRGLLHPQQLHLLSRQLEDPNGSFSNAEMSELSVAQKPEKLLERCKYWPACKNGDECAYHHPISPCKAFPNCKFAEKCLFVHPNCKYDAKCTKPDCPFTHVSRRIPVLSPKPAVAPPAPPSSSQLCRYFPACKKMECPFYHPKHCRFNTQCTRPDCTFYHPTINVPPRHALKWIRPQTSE
UniProt A8MPS7: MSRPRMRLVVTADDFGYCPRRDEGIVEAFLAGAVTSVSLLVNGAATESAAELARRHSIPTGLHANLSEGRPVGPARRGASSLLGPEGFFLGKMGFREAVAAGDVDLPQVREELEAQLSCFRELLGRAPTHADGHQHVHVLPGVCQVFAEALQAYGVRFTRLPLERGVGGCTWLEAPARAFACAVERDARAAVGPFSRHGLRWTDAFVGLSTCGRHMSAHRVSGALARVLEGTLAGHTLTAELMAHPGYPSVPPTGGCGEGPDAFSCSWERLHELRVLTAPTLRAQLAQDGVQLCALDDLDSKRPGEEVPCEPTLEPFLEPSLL

Legend:
Test in all cases: log2 fold change, soluble protein after heating vs DMSO (PISA); higher = thermal stabilisation; K562 cells, 10 uM, 30 min; active = over 0.2 and 3.5 SD of the protein, either way, in both replicates (recomputed)
[1] = compound: Cc1ccc(NC(=O)c2ccc(CN3CC[C@H](N(C)C)C3)c(C(F)(F)F)c2)cc1Nc1nccc(-c2cncnc2)n1 [bafetinib]
Procedure, shortened: (§1)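 Quantification of soluble protein used TMTpro 16plex LC-MS/MS, with channel sums equalised. Samples were the supernatant after 21,000xg for 90 min of pooled aliquots from K562 cells (2×10^6 cells/mL) treated with 10 μM compound for 30 min, heated for 3 min over 48°C-58°C, and extracted in PBS with 0.5% NP-40 at 4°C. Values, from duplicates, describe thermal stability against control samples on a log2 fold-change scale.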

[2] = compound: Cc1cccc(CC(=O)N2CCc3c2ccc(-c2cn(C)c4ncnc(N)c24)c3F)n1
Procedure, shortened: as §1

[3] = compound: Cc1cn(-c2cc(NC(=O)c3ccc(C)c(Nc4nccc(-c5cccnc5)n4)c3)cc(C(F)(F)F)c2)cn1 [nilotinib]
Procedure, shortened: as §1

[4] = compound: Cc1nc(Nc2n[nH]c3c2CN(C(=O)N[C@H](CN(C)C)c2ccccc2)C3(C)C)c2sccc2n1
Procedure, shortened: as §1

[5] = compound: Cc1nc(Nc2ncc(C(=O)Nc3c(C)cccc3Cl)s2)cc(N2CCN(CCO)CC2)n1 [dasatinib]
Procedure, shortened: as §1

[6] = compound: Cc1ncc(-c2ccnc(Nc3ccc(S(C)(=O)=O)cc3)n2)n1C(C)C
Procedure, shortened: as §1

[7] = compound: Cn1cc(-c2ccc3c(c2)CCN3C(=O)Cc2cccc(C(F)(F)F)c2)c2c(N)ncnc21
Procedure, shortened: as §1

[8] = compound: Cn1cc(-c2ccc3nnc(C(F)(F)c4ccc5ncccc5c4)n3n2)cn1
Procedure, shortened: as §1

[9] = compound: Cn1cncc1[C@@](N)(c1ccc(Cl)cc1)c1ccc2c(c1)c(-c1cccc(Cl)c1)cc(=O)n2C [tipifarnib]
Procedure, shortened: as §1

[10] = compound: FC(F)(F)c1ccc(/C=C/c2nc(COc3ccc(CCCCn4ccnn4)cc3)co2)cc1 [mubritinib]
Procedure, shortened: as §1

Measured: log2 fold change

XPO6 (UniProt Q96QU8)
inactive: [1] 0.057 | [2] -0.05 | [3] -0.143 | [4] -0.148 | [5] -0.109 | [6] 0.027 | [7] -0.001 | [8] -0.117 | [9] -0.111 | [10] 0.092

YBX3 (UniProt P16989)
inactive: [1] 0.091 | [2] -0.048 | [3] 0.047 | [4] 0.156 | [5] 0.12 | [6] 0.032 | [7] -0.236 | [8] -0.115 | [9] 0.115 | [10] -0.065

ZBTB21 (UniProt Q9ULJ3)
inactive: [1] 0.194 | [2] 0.016 | [3] 0.023 | [4] -0.093 | [5] -0.005 | [6] 0.061 | [7] 0.122 | [8] -0.009 | [9] -0.02 | [10] 0.003

YWHAZ (UniProt P63104)
inactive: [1] -0.022 | [2] 0.029 | [3] 0.04 | [4] -0.015 | [5] -0.044 | [6] -0.003 | [7] 0.052 | [8] -0.045 | [9] -0.123 | [10] 0.015

XRCC6 (UniProt P12956)
inactive: [1] -0.003 | [2] 0.032 | [3] -0.067 | [4] -0.248 | [5] -0.147 | [6] -0.07 | [7] -0.01 | [8] 0.018 | [9] -0.104 | [10] 0.043

ZMYM1 (UniProt Q5SVZ6)
inactive: [1] -0.028 | [2] -0.036 | [3] -0.009 | [4] -0.063 | [5] -0.045 | [6] -0.033 | [7] 0.07 | [8] 0.05 | [9] 0.01 | [10] -0.081

ZNF239 (UniProt Q16600)
inactive: [1] -0.452 | [2] 0 | [3] -0.022 | [4] -0.012 | [5] -0.074 | [6] 0.275 | [7] 0.306 | [8] -0.102 | [9] 0.178 | [10] -0.483

ZDHHC20 (UniProt Q5W0Z9)
inactive: [1] 0.104 | [2] 0.021 | [3] 0.016 | [4] -0.02 | [5] -0.163 | [6] 0.022 | [7] -0.036 | [8] 0.048 | [9] -0.014 | [10] 0.03

YME1L1 (UniProt Q96TA2)
inactive: [1] -0.098 | [2] -0.001 | [3] -0.057 | [4] -0.005 | [5] 0.019 | [6] 0.004 | [7] -0.042 | [8] 0 | [9] 0.044 | [10] -0.011

ZMPSTE24 (UniProt O75844)
inactive: [1] 0.075 | [2] -0.019 | [3] 0.17 | [4] 0.008 | [5] 0.019 | [6] -0.061 | [7] -0.018 | [8] -0.014 | [9] 0.001 | [10] 0.026

ZCCHC3 (UniProt Q9NUD5)
inactive: [1] 0.119 | [2] 0 | [3] 0.038 | [4] 0.027 | [5] 0.12 | [6] -0.044 | [7] -0.189 | [8] -0.09 | [9] 0.132 | [10] -0.027

ZFAND3 (UniProt Q9H8U3)
inactive: [1] -0.088 | [2] 0.132 | [3] -0.006 | [4] 0.036 | [5] 0.034 | [6] -0.031 | [7] 0.01 | [8] 0.005 | [9] 0.05 | [10] -0.014

Four neighbouring records already listed, quoted:
ZNF239 (UniProt Q16600)
inactive: [1] -0.452 | [2] 0 | [3] -0.022 | [4] -0.012 | [5] -0.074 | [6] 0.275 | [7] 0.306 | [8] -0.102 | [9] 0.178 | [10] -0.483

ZDHHC20 (UniProt Q5W0Z9)
inactive: [1] 0.104 | [2] 0.021 | [3] 0.016 | [4] -0.02 | [5] -0.163 | [6] 0.022 | [7] -0.036 | [8] 0.048 | [9] -0.014 | [10] 0.03

YME1L1 (UniProt Q96TA2)
inactive: [1] -0.098 | [2] -0.001 | [3] -0.057 | [4] -0.005 | [5] 0.019 | [6] 0.004 | [7] -0.042 | [8] 0 | [9] 0.044 | [10] -0.011

ZMPSTE24 (UniProt O75844)
inactive: [1] 0.075 | [2] -0.019 | [3] 0.17 | [4] 0.008 | [5] 0.019 | [6] -0.061 | [7] -0.018 | [8] -0.014 | [9] 0.001 | [10] 0.026

(continued)

XRCC3 (UniProt O43542)
inactive: [1] -0.115 | [2] -0.04 | [3] -0.071 | [4] 0.035 | [5] -0.068 | [6] -0.008 | [7] -0.023 | [8] -0.088 | [9] 0.098 | [10] 0.079

ZC3H14 (UniProt Q6PJT7)
inactive: [1] -0.083 | [2] -0.037 | [3] -0.068 | [4] -0.085 | [5] 0.027 | [6] 0.043 | [7] -0.155 | [8] 0.093 | [9] 0.024 | [10] -0.149

YDJC (UniProt A8MPS7)
inactive: [1] 0.006 | [2] -0.032 | [3] 0.017 | [4] 0.006 | [5] -0.117 | [6] 0.014 | [7] 0.072 | [8] 0.008 | [9] -0.04 | [10] -0.006
